Counter-ions that a name gives are not always drawn. The list shows a part of the results. Most entries show no effect beyond the scatter of the controls.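 A single-replicate pilot screen of approved drugs and clinical or known-target compounds measured melting temperature via differential scanning fluorimetry. Top stabilizing hits raised the melting point by 2 °C or more; negative shifts indicate destabilization.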
What follows are molecules tested on SARS-CoV-2 main protease (Mpro, nsp5) (assay: thermal shift ΔTm of Mpro relative to plate average Tm; higher = stronger thermal stabilization of Mpro (binding)). Conditions: 10 µM; protein concentration 1 µM.

SMILES | thermal shift ΔTm of Mpro
C[C@H]1O[C@@H](n2cc(F)c(=O)[nH]c2=O)[C@H](O)[C@@H]1O [Doxifluridine] | 0.0683 °C
Cc1cc(Nc2cc(N)ncn2)c(=O)n2c1C(=O)NC21CCCCC1 | -0.0255 °C
Cc1c(C(=O)Nc2ccc(N3CCC(N4CCOCC4)CC3)c(C#N)c2)cnn1-c1ccc(Cl)cc1 | -0.329 °C
COc1cc(O)c2c(=O)cc(-c3ccc(O)c(OC)c3)oc2c1 [Velutin] | 0.0998 °C
O=c1c(-c2ccc(O)cc2)coc2cc(O)ccc12 [Daidzein] | 0.0966 °C
C=C(Cc1ccccc1Cl)C(=O)OCC | -0.0933 °C
O=C(O)CCCCC(CCSCc1ccccc1)SCc1ccccc1 (configuration not stated) | -0.23 °C
CC1(C)CC[C@]2(C(=O)O)CC[C@]3(C)C(=CC[C@@H]4[C@@]5(C)CC[C@H](O)C(C)(C)[C@@H]5CC[C@]43C)[C@@H]2C1 [Oleanolic Acid] | 0.284 °C
CN1C(=O)OC(C)(C)C1=O [Trimethadione] | 0.14 °C
CC(C)CN(CC(=O)N1CCN(CC(OCc2ccc3ccccc3c2)c2ccc(Cl)cc2Cl)CC1)CC(C)C (configuration not stated) | -0.271 °C
Cn1nccc1Nc1nccc(-c2cc3c(s2)C(C)(C)N(CCN2CCOCC2)C3=O)n1 | -0.041 °C
CN(C/C=C/c1ccccc1)Cc1cccc2ccccc12 [Naftifine hydrochloride] | 0.0314 °C
Nc1c(CC(=O)O)cccc1C(=O)c1ccc(Br)cc1 [Bromfenac Sodium] | -0.117 °C
CN(C)CCOc1ccc(-c2nc(-c3ccncc3)c(-c3ccc4c(c3)CC/C4=N\O)[nH]2)cc1 | -0.151 °C
C[C@H](Cc1cc2c(c(C(N)=O)c1)N(CCCO)CC2)NCCOc1ccccc1OCC(F)(F)F [Silodosin] | 0.0286 °C
O=C(c1ccc(/C=C/c2n[nH]c3ccccc23)cc1)N1CCNCC1 | -0.196 °C
C/C(=C\C(=O)Nc1ccccc1C(=O)O)c1ccc2ccccc2c1 | 0.244 °C
Cc1cc(Cl)ccc1OCCCC(=O)NO [Droxinostat] | 0.199 °C
O=C(NCCN1CCOCC1)c1ccc(Cl)cc1 | -0.0952 °C
Cc1ccc(-n2sc(=O)n(Cc3ccc(F)cc3)c2=O)cc1 | -0.979 °C
COc1c(C)c2c(c(O)c1C/C=C(\C)CCC(=O)O)C(=O)OC2 [Mycophenolic acid] | 0.0728 °C

SMILES | thermal shift ΔTm of Mpro
O=C(Oc1ccccc1C(=O)O)c1ccccc1O [Sasapyrine] | 0.148 °C
CC(C)(O)c1ccc2c(c1)ncn2-c1cccc(-c2ccccc2C#N)c1 | -0.125 °C
O=C(O)c1ccc(S(=O)(=O)N(Cl)Cl)cc1 [Halazone] | 0.0185 °C
CCCCCNC(=N)N/N=C/c1c[nH]c2ccc(OC)cc12 [Tegaserod maleate] | 0.202 °C
CS(=O)(=O)c1ccc(-c2cnc(N)c(C(=O)Nc3ccccc3)n2)cc1 | -0.242 °C
NS(=O)(=O)c1cc(Cl)c(Cl)c(S(N)(=O)=O)c1 [Dichlorphenamide] | -0.176 °C
O=C(O)C1=CO[C@@H](O[C@@H]2O[C@H](CO)[C@@H](O)[C@H](O)[C@H]2O)[C@@H]2C(CO)=CC[C@H]12 [Geniposidic acid] | -0.0622 °C
CC(C)C[C@H](NC(=O)CN)C(=O)O | -0.00719 °C
Cc1ccc(Nc2ncc3c(n2)N(C)C(=O)N(c2cc(NC(=O)c4cccc(C(F)(F)F)c4)ccc2C)C3)cn1 | 0.147 °C
NCCc1ccc(S(=O)(=O)F)cc1 | -0.164 °C
Nc1ccc(S(=O)(=O)Nc2cnc3ccccc3n2)cc1 [Sulfaquinoxaline sodium] | 0.196 °C
CNC[C@H](O)[C@@H](O)[C@H](O)[C@H](O)CO [Meglumine] | 0.2 °C
COC(=O)N[C@H](C(=O)N[C@@H](Cc1ccccc1)[C@@H](O)CN(Cc1ccc(-c2ccccn2)cc1)NC(=O)[C@@H](NC(=O)OC)C(C)(C)C)C(C)(C)C [Atazanavir Sulfate] | 0.228 °C
COC(=O)N[C@H](C(=O)N[C@@H](Cc1ccccc1)[C@@H](O)CN(Cc1ccc(-c2ccccn2)cc1)NC(=O)[C@@H](NC(=O)OC)C(C)(C)C)C(C)(C)C [Atazanavir] | -0.0303 °C
N.N.O=C([O-])C[O-].[Pt+2] [Nedaplatin] | -0.00399 °C
N[C@@H](Cc1ccc(N(CCCl)CCCl)cc1)C(=O)O [Melphalan] | -0.129 °C
COC(=O)Nc1ccc(-c2nc(N3CCOCC3)c3cnn(C4CCN(C(=O)OC)CC4)c3n2)cc1 | 0.209 °C
[O-][n+]1cccc(CO)c1 [Mepiroxol] | 0.0877 °C
COc1ccc(C[C@H](N)C(=O)N[C@H]2[C@@H](O)[C@H](n3cnc4c(N(C)C)ncnc43)O[C@@H]2CO)cc1 [Puromycin 2HCl] | -0.124 °C
OC(CC1c2ccccc2-c2cncn21)C1CCCCC1 (configuration not stated) | -0.0127 °C
Cc1ccnc(NS(=O)(=O)c2ccc(N)cc2)n1 [Sulfamerazine] | 0.151 °C

SMILES | thermal shift ΔTm of Mpro
CCC[S+]([O-])c1ccc2[nH]c(NC(=O)OC)nc2c1 (configuration not stated) [Albendazole Oxide] | -0.112 °C
NC(=O)OCC(COC(N)=O)c1ccccc1 [Felbamate] | 0.297 °C
O=c1ccn([C@@H]2O[C@H](CO)[C@@H](O)[C@H]2O)c(=O)[nH]1 [Uridine] | -0.072 °C
COc1cc(/C=C2/SC(=S)NC2=O)ccc1OCC(=O)O | -0.0553 °C
C[C@H](Cn1cnc2c(N)ncnc21)OCP(=O)(O)O [Tenofovir] | 0.223 °C
CCCCNc1cc(C(=O)O)cc(S(N)(=O)=O)c1Oc1ccccc1 [Bumetanide] | 0.186 °C
OC(CCN1CCCCC1)(c1ccccc1)C1CCCCC1 (racemic) [DL-trihexyphenidyl hydrochloride] | 0.166 °C
COc1nnc2ccc(N3CCC(c4ccc(OCCN5CCN(C)C(=O)[C@H]5C)cc4)CC3)nn12.O=C(O)c1ccc2cc(O)ccc2c1 [AZD5153 6-Hydroxy-2-naphthoic acid] | -0.00828 °C
CCOC(=O)[C@H](C)C[C@@H](Cc1ccc(-c2ccccc2)cc1)NC(=O)CCC(=O)O [AHU377 calcium salt] | 0.0728 °C
CCOC(=O)[C@H](C)C[C@@H](Cc1ccc(-c2ccccc2)cc1)NC(=O)CCC(=O)O | 0.176 °C
N#CC(c1ccnc(OCc2ccc(CN3CCOCC3)cc2)n1)c1nc2ccccc2s1 (configuration not stated) | 0.0297 °C
CCN(CC)CCOC(=O)c1ccc(N)cc1 [Procaine] | 0.12 °C
CCN(CC)CCOC(=O)c1ccc(N)cc1 [Procaine HCl] | -0.0857 °C
c1cc(-c2nc3ccc(OCCCN4CCCC4)cc3o2)ccc1OCCCN1CCCC1 | 0.031 °C
Oc1nc(O)c2cn[nH]c2n1 [Oxypurinol] | -0.108 °C
Cn1ccnc1 [Saccharin 1-methylimidazole (SMI)] | 0.0581 °C
CC[C@H](C)C(=O)O[C@H]1C[C@@H](C)C=C2C=C[C@H](C)[C@H](CC[C@@H]3C[C@@H](O)CC(=O)O3)[C@H]21 [Lovastatin] | -0.146 °C
Clc1ccc(C(Cn2ccnc2)OCc2ccc(Sc3ccccc3)cc2)c(Cl)c1 (configuration not stated) [Fenticonazole Nitrate] | -0.595 °C
Cc1c(C)c2c(c(C)c1O)CCC(C)(C(=O)O)O2 (configuration not stated) [Trolox] | 0.0328 °C
COc1ccc(S(=O)(=O)Nc2ccccc2C=Cc2ccncc2)cc1 | 0.0121 °C
CCn1nc(C2CCN(C(=O)CCO)CC2)nc1-c1cnc(N)c(-c2nnc(C(C)(C)C)o2)n1 | 0.105 °C

Single entries from above:
CC(C)(O)c1ccc2c(c1)ncn2-c1cccc(-c2ccccc2C#N)c1 – thermal shift ΔTm of Mpro: -0.125 °C
N.N.O=C([O-])C[O-].[Pt+2] [Nedaplatin] – thermal shift ΔTm of Mpro: -0.00399 °C
CNC[C@H](O)[C@@H](O)[C@H](O)[C@H](O)CO [Meglumine] – thermal shift ΔTm of Mpro: 0.2 °C
O=C(O)CCCCC(CCSCc1ccccc1)SCc1ccccc1 (configuration not stated) – thermal shift ΔTm of Mpro: -0.23 °C

The list goes on:

SMILES | thermal shift ΔTm of Mpro
COc1cccc2cc(-c3nc([C@H]4CC[C@H](C(=O)O)CC4)n4ncnc(N)c34)[nH]c12 | 0.117 °C
CS(=O)(=O)c1ccc(-c2cnc(NCc3ccco3)n3cnnc23)cc1 | 0.00293 °C
O=C1CCC[C@@H]2[C@H]3CCC[N+]4([O-])CCC[C@@H](CN12)[C@@H]34 (some centres not stated) [Oxymatrine] | -0.0788 °C
C[C@@H](c1nc(-c2ccc(C#N)cc2)cs1)[C@](O)(Cn1cncn1)c1cc(F)ccc1F [Isavuconazole] | -0.0483 °C
N[C@@H](Cc1cc(I)c(Oc2ccc(O)cc2)c(I)c1)C(=O)O [3,5-Diiodo-L-thyronine] | -0.188 °C
C[C@]1(c2nc3c(C(N)=O)cccc3[nH]2)CCCN1 [Veliparib (ABT-888)] | -0.139 °C
C[C@]1(c2nc3c(C(N)=O)cccc3[nH]2)CCCN1 [Veliparib dihydrochloride] | 0.0613 °C
C=CC(=O)Nc1cc(Nc2ncc(Cl)c(-c3c[nH]c4ccccc34)n2)c(OC)cc1N(C)CCN(C)C [Mutant EGFR inhibitor] | 0.138 °C
CC(=O)N[C@@H](CS)C(=O)O [Acetylcysteine] | -0.139 °C
OCC(O)c1ccccc1 (configuration not stated) [1-Phenyl-1,2-ethanediol] | 0.11 °C
C=C[C@@H]1C2=CCOC(=O)C2=CO[C@H]1O[C@@H]1O[C@H](CO[C@@H]2O[C@H](CO)[C@@H](O)[C@H](O)[C@H]2O)[C@@H](O)[C@H](O)[C@H]1O [6'-O-beta-D-Glucosylgentiopicroside] | 0.00787 °C
Oc1ccccc1N=Cc1c(O)ccc2ccccc12 | -0.264 °C
O=C(O)Cc1cccc(OCCCN(Cc2cccc(C(F)(F)F)c2Cl)CC(c2ccccc2)c2ccccc2)c1 | -0.553 °C
O=[N+]([O-])/C=C/c1ccc2c(c1)OCO2 [MNS (3,4-Methylenedioxy-β-nitrostyrene, MDBN)] | -0.387 °C
CC(=O)O[C@H]1C[C@@]2(C)[C@@H](C[C@@H](O)[C@H]3[C@@]4(C)CC[C@@H](O)[C@@H](C)[C@@H]4CC[C@@]32C)/C1=C(\CCC=C(C)C)C(=O)O [Sodium fusidate] | -0.0438 °C
C[C@@H](C(=O)Nc1ccc(Cl)cc1)[C@H]1CC[C@@H](c2ccnc3ccc(F)cc32)CC1 [Linrodostat] | 0.263 °C
CCN(CC)C(=O)C(c1ccccc1)N1CCN(c2ccc(NC(=O)c3ccccc3-c3cccnc3)cc2F)CC1 (configuration not stated) | -0.0914 °C
C=C1C[C@]2(O)O[C@@]3(CC2=C(C)C)[C@@H](C)CC[C@@H]13 [Isocurcumenol] | 0.00395 °C
O=c1[nH]c2cc(C(F)(F)F)ccc2n1-c1cc(C(F)(F)F)ccc1O | -0.0337 °C
